Experimental findings from patent US6224857A, “Pharmaceutical preparations comprised of salts of hyaluronic acid with local anaesthetics” (Fidia, S.p.A., priority 1996, dated 2001) are described below.

This test concerns rabbit cornea. Nature of the test: Corneal anaesthesia in rabbit (blinking reflex, Camougis and Tankman method). It counts as in vivo. The conditions noted are these: rabbit eye, reference Lidocaine HCl = 100. How it is done:
[…] of solution was instilled in the conjunctival sac. The blinking reflex, tested with a bristle, was measured before instillation and then every 5-10 minutes until one hour after treatment. At each test time the degree of anaesthesia was expressed by means of a score of up to 10 given by the number of stimulations before the eye-blink reflex was obtained. The overall anaesthetic effect for each compound was then quantified by the area under curve (AUC) of the degree of anaesthesia over time.

The structures appear in SMILES notation. Structures can show the parent of a compound that is named as a salt.

Regarding `CCN(CC)CC(=O)Nc1c(C)cccc1C` [Lidocaine HCl, lidocaine hydrochloride], the “Anaesthesia (AUC)” value is, setting by setting: (Table 1, dose 1% (as hydrochloride)) 100; (Table 4, dose 0.125%, alkaline salts) 100.
